Reference: PubChem BioAssay AID1259254 (NCATS, 2017)
Shown is a random part of about 59,000 reagents tested. About 1,550 of all reagents (2.6%) count as active. 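G2 share is only a proxy for re-replication; each gene was hit by three separate siRNAs, and active genes were retested.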 The raw values are shown without normalisation. Reagents against one gene are numbered here. Not stated in the record: the amount of reagent.

Assay: 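Genome-wide screen for genes that prevent DNA re-replication in cancer cells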 (primary screen)
Cells: human HCT116 colorectal cancer cells
Knock-down reagent: single siRNA against human genes
Time to read-out: 3 days
Detection: 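Imaged Hoechst DNA stain sorts each cell into a cycle phase by DNA amount; per plate, G2 fraction set to 0% for non-targeting and 100% for GMNN siRNA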
Reading the numbers: G2 robust z-score and G2 cells, % of GMNN control: higher = more G2 cells, more excess DNA replication; raw share of cells in G2: higher = larger share of cells with G2 DNA content
Hit rule: 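Active siRNAs have a G2 robust z of 5 or more median absolute deviations over the median, which in these data means about 38% or higher of GMNN control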

| Target gene | siRNA no. | G2 robust z-score | G2 cells, % of GMNN control | raw share of cells in G2 (%) | activity call |
| --- | --- | --- | --- | --- | --- |
| CCL26 (C-C motif chemokine ligand 26) | 1 | -0.339 | 0.585 | 5.95 | inactive |
| CCL26 (C-C motif chemokine ligand 26) | 2 | 0.942 | 9.59 | 6.94 | inactive |
| CCL26 (C-C motif chemokine ligand 26) | 3 | -0.365 | 0.402 | 6.64 | inactive |
| SBSN (suprabasin) | 1 | 0.0942 | 3.63 | 4.85 | inactive |
| SBSN (suprabasin) | 2 | 1.25 | 11.7 | 8.91 | inactive |
| SBSN (suprabasin) | 3 | 2.62 | 21.4 | 11.3 | inactive |
| ARHGAP5-AS1 (ARHGAP5 antisense RNA 1 (head to head)) | 1 | -0.157 | 1.86 | 4.73 | inactive |
| ARHGAP5-AS1 (ARHGAP5 antisense RNA 1 (head to head)) | 2 | -0.581 | -1.12 | 3.13 | inactive |
| ARHGAP5-AS1 (ARHGAP5 antisense RNA 1 (head to head)) | 3 | -0.581 | -1.12 | 2.07 | inactive |
| PTPRO (protein tyrosine phosphatase receptor type O) | 1 | 4.79 | 36.7 | 16.7 | inactive |
| PTPRO (protein tyrosine phosphatase receptor type O) | 2 | -1.02 | -4.23 | 3.03 | inactive |
| PTPRO (protein tyrosine phosphatase receptor type O) | 3 | -0.0988 | 2.27 | 4.18 | inactive |
| TMEM200C (transmembrane protein 200C) | 1 | 0.283 | 4.96 | 4.62 | inactive |
| TMEM200C (transmembrane protein 200C) | 2 | -0.605 | -1.29 | 3.29 | inactive |
| TMEM200C (transmembrane protein 200C) | 3 | -1.2 | -5.46 | 1.2 | inactive |
| NCKAP1L (NCK associated protein 1 like) | 1 | 0.305 | 5.11 | 7.7 | inactive |
| NCKAP1L (NCK associated protein 1 like) | 2 | -0.691 | -1.89 | 3.39 | inactive |
| NCKAP1L (NCK associated protein 1 like) | 3 | 1.05 | 10.4 | 7.58 | inactive |
| CHERP (calcium homeostasis endoplasmic reticulum protein) | 1 | -0.986 | -3.97 | 3.97 | inactive |
| CHERP (calcium homeostasis endoplasmic reticulum protein) | 2 | 0.203 | 4.4 | 5.26 | inactive |
| CHERP (calcium homeostasis endoplasmic reticulum protein) | 3 | 0.0741 | 3.49 | 7.85 | inactive |
| KRABD4 (KRAB domain containing 4) | 1 | -0.497 | -0.532 | 4.25 | inactive |
| KRABD4 (KRAB domain containing 4) | 2 | -0.968 | -3.84 | 4.75 | inactive |
| KRABD4 (KRAB domain containing 4) | 3 | -0.214 | 1.46 | 4.94 | inactive |
| GDF10 (growth differentiation factor 10) | 1 | 0.425 | 5.96 | 8.1 | inactive |
| GDF10 (growth differentiation factor 10) | 2 | 2.71 | 22 | 12.2 | inactive |
| GDF10 (growth differentiation factor 10) | 3 | 0.25 | 4.73 | 5.37 | inactive |
| UMODL1 (uromodulin like 1) | 1 | 1.42 | 12.9 | 9.57 | inactive |
| UMODL1 (uromodulin like 1) | 2 | 2.34 | 19.5 | 9.1 | inactive |
| UMODL1 (uromodulin like 1) | 3 | -0.52 | -0.692 | 2.71 | inactive |
| ARHGEF40 (Rho guanine nucleotide exchange factor 40) | 1 | -0.168 | 1.79 | 5.21 | inactive |
| ARHGEF40 (Rho guanine nucleotide exchange factor 40) | 2 | -0.51 | -0.624 | 3.88 | inactive |
| ARHGEF40 (Rho guanine nucleotide exchange factor 40) | 3 | -0.456 | -0.241 | 3.06 | inactive |
| C8orf76 (chromosome 8 open reading frame 76) | 1 | -0.535 | -0.796 | 3.75 | inactive |
| C8orf76 (chromosome 8 open reading frame 76) | 2 | 1.04 | 10.3 | 6.22 | inactive |
| C8orf76 (chromosome 8 open reading frame 76) | 3 | -0.28 | 0.998 | 3.24 | inactive |
| KIFBP (kinesin family binding protein) | 1 | -0.344 | 0.545 | 4.62 | inactive |
| KIFBP (kinesin family binding protein) | 2 | 1.56 | 14 | 9.98 | inactive |
| KIFBP (kinesin family binding protein) | 3 | 0.608 | 7.25 | 5.83 | inactive |
| CAMK2N2 (calcium/calmodulin dependent protein kinase II inhibitor 2) | 1 | 1.02 | 10.2 | 8.17 | inactive |
| CAMK2N2 (calcium/calmodulin dependent protein kinase II inhibitor 2) | 2 | -0.815 | -2.76 | 2.51 | inactive |
| CAMK2N2 (calcium/calmodulin dependent protein kinase II inhibitor 2) | 3 | -0.0824 | 2.39 | 2.52 | inactive |
| BBLN (bublin coiled coil protein) | 1 | -0.0839 | 2.38 | 3.33 | inactive |
| BBLN (bublin coiled coil protein) | 2 | 4.4 | 33.9 | 19.4 | inactive |
| BBLN (bublin coiled coil protein) | 3 | -0.402 | 0.138 | 4.67 | inactive |
| ADORA2B (adenosine A2b receptor) | 1 | 0.74 | 8.18 | 8.77 | inactive |
| ADORA2B (adenosine A2b receptor) | 2 | -0.756 | -2.35 | 3.7 | inactive |
| ADORA2B (adenosine A2b receptor) | 3 | -0.125 | 2.09 | 3.91 | inactive |
| WDFY1 (WD repeat and FYVE domain containing 1) | 1 | -0.366 | 0.391 | 2.93 | inactive |
| WDFY1 (WD repeat and FYVE domain containing 1) | 2 | -0.344 | 0.55 | 6.16 | inactive |
| WDFY1 (WD repeat and FYVE domain containing 1) | 3 | 0.623 | 7.35 | 5.94 | inactive |
| ANKS3 (ankyrin repeat and sterile alpha motif domain containing 3) | 1 | 0.731 | 8.11 | 7.34 | inactive |
| ANKS3 (ankyrin repeat and sterile alpha motif domain containing 3) | 2 | 0.732 | 8.12 | 5.75 | inactive |
| ANKS3 (ankyrin repeat and sterile alpha motif domain containing 3) | 3 | -0.506 | -0.591 | 1.65 | inactive |
| LOC645485 | 1 | -0.715 | -2.06 | 3 | inactive |
| LOC645485 | 2 | -0.532 | -0.774 | 2.94 | inactive |
| LOC645485 | 3 | -0.728 | -2.15 | 2.36 | inactive |
| OR12D3 (olfactory receptor family 12 subfamily D member 3) | 1 | -1.06 | -4.5 | 2.61 | inactive |
| OR12D3 (olfactory receptor family 12 subfamily D member 3) | 2 | -0.602 | -1.26 | 3.08 | inactive |
| OR12D3 (olfactory receptor family 12 subfamily D member 3) | 3 | -0.622 | -1.41 | 1.98 | inactive |
| HELLS (helicase, lymphoid specific) | 1 | -0.563 | -0.995 | 4.68 | inactive |
| HELLS (helicase, lymphoid specific) | 2 | 0.423 | 5.95 | 7.95 | inactive |
| HELLS (helicase, lymphoid specific) | 3 | -0.264 | 1.11 | 4.61 | inactive |
| PAIP1 (poly(A) binding protein interacting protein 1) | 1 | -0.64 | -1.54 | 3.34 | inactive |
| PAIP1 (poly(A) binding protein interacting protein 1) | 2 | -0.356 | 0.464 | 5.9 | inactive |
| PAIP1 (poly(A) binding protein interacting protein 1) | 3 | 0.162 | 4.11 | 8.1 | inactive |
| CA9 (carbonic anhydrase 9) | 1 | 3.19 | 25.4 | 14.1 | inactive |
| CA9 (carbonic anhydrase 9) | 2 | -0.681 | -1.82 | 4.1 | inactive |
| CA9 (carbonic anhydrase 9) | 3 | 8.77 | 64.7 | 28.1 | active |

10 entries from above, limited to “G2 robust z-score”:
LOC645485 #1: -0.715
LOC645485 #2: -0.532
LOC645485 #3: -0.728
OR12D3 (olfactory receptor family 12 subfamily D member 3) #1: -1.06
OR12D3 (olfactory receptor family 12 subfamily D member 3) #2: -0.602
OR12D3 (olfactory receptor family 12 subfamily D member 3) #3: -0.622
HELLS (helicase, lymphoid specific) #1: -0.563
HELLS (helicase, lymphoid specific) #2: 0.423
HELLS (helicase, lymphoid specific) #3: -0.264
PAIP1 (poly(A) binding protein interacting protein 1) #1: -0.64
